In patent US20160289321A1:
Positions count from the first letter of the chain named. No constants are given. Whether binding was seen depends on the method and setting. Some entries that bind do so weakly or less than the wild type.

B1: Hu049-17 (antibody, V domains shown)
VH: EVQLVQSGAEVKKPGASVKVSCKASGYTFTDYEVHWVRQAPGQGLEWMGVIDPGTGGVAYNQKFEGRVTMTTDTSTSTAYMELRSLRSDDTAVYYCTRYSLFYGSSPYAMDYWGQGTLVTVSS
VL: EIVLTQSPDFQSVTPKEKVTITCSASSSVNYMHWFQQKPDQSPKLWIYRTSNLASGVPSRFSGSGSGTDYTLTINSLEAEDAATYYCQQRSSYPWTFGQGTKLEIKR
B2: Hu049-20 (antibody, V domains shown)
VH: B1 VH with M48I, V68A, M70L, T72A, T74D, S77N
VL: B1 VL
B3: Hu049-19 (antibody, V domains shown)
VH: B1 VH with M48I, T72A
VL: B1 VL
B4: Hu049-18 (antibody, V domains shown)
VH: B1 VH with T72A
VL: B1 VL

biological target: Cyno IL-17A (cynomolgus); assay: told from the Hs27 GROα bioassay, not a direct binding assay

Row | binding | Binder
1 | binds | B1
2 | binds | B2
3 | binds | B3
4 | binds | B4
